According to US12691124B2, “Methods of controlling and improving brain health” (ICAHN SCHOOL OF MEDICINE AT MOUNT SINAI, priority 2019, dated 2026):
At least one compound was matched to its structure with a doubt left.

How the values were obtained:
BRD4 = target: T1, BRD4 (Mus musculus, UniProt Q9ESU6); assay: ChIP sequencing of BRD4 chromatin occupancy in neurons; assay type: cell-based; conditions: rapamycin, six hours
T1 construct: Primary cortical neurons express BRD2/3/4, with BRD2 and BRD4 being the most abundant; endogenous in cells; host or cells: primary cortical neuronal cultures (mouse)
Procedure: Chromatin Immunoprecipitation with Sequencing. Primary cortical neuronal cultures were washed once with PBS then fixed for 10 minutes with a 1% formaldehyde solution in PBS with protease inhibitors (Sigma #P8340) at room temperature. Fixation was quenched adding glycine to a final concentration of 0.125M (5 minutes, room temperature). 10e6 fixed cells were resuspended in 1 ml of lysis buffer (50 mM Hepes KOH, pH7.5, 140 mM NaCl, 1 mM EDTA, 10% glycerol, 0.5% NP-40, 0.25% Triton X-100) and 10 ul of protease inhibitor cocktail (PIC). Samples were rotated for 10 minutes at 4 degrees then spun at 1350 g at 4 C for 10 minutes. Pellets were resuspended in 1 ml of lysis buffer 2 (10 mM Tris-HCl pH8.0, 200 mM NaCl, 1 mM EDTA, 0.5 mM EGTA) and 10 ul PIC.). 5e6 nuclei were sonicated in lysis buffer 3 (10 mM Tris-HCl pH8.0, 100 mM NaCl, 1 mM EDTA, 0.5 mM EGTA, 0.1% Na-Deoxicholate, 0.5% N-Lauroylsarcosine) at 4 degrees for 5 cycles of 30 seconds ON/30 seconds OFF using the Diagenode bioruptor. […]
Samples were end-repaired using the End-IT DNA End-Repair Kit (#ER0720). […] Raw sequencing reads were then aligned to the mouse mm9 genome using the default settings of Bowtie (v2.2.0)87. Only uniquely mapped reads were retained, and the alignments were subsequently filtered using the SAMtools package (v0.1.19)88 to remove duplicate reads. […]

primary cortical neurons [1] = assay: Gene expression in primary cortical neurons; assay type: cell-based, mouse; conditions: rapamycin 20 nM, 4 h to 1 week
Text: (§1) Primary Cortical Neuron Culture. Embryonic day 18 (E18) timed-pregnant female mice were anesthetized with CO2 and sacrificed by cervical dislocation. In a dissection hood, 24-26 embryos per experiment were collected through an incision of the mother's abdomen, taken out of the amniotic sacs and decapitated in ice cold Hank's Balanced Salt Solution (HBSS). Using fine scissors and forceps, brains were rapidly dissected and the cortex cleared from meninges and isolated under a dissection microscope. Cortices were collected in ice cold HBSS and kept on ice until all embryos had been dissected. In a tissue culture hood, HBSS was removed and the cortex tissue digested by 0.25% Trypsin-EDTA for 12 minutes at 37° C., followed by DNase1 treatment for 10 minutes at 37° C. […] Cell suspension was washed once with DMEM medium, supplemented with 10% FBS and 1% penicillin/streptomycin and passed through a […] cell strainer before counted on a hemocytometer. […]
RNA Sequencing. […] Duplexed libraries were sequenced on HiSeq 2000, typically yielding on average 60 million, 100 bp long single-end reads per sample (Illumina). […] After filtering out adaptor and low quality reads, reads were mapped using TopHat (version 2.0.8) to the mm9 mouse genome. […] Differentially expressed autosomal genes between control and acute I-BET858 or chronic I-BET858 libraries were determined using a p-value <0.05 and fold change of >2. […]

primary cortical neurons [2] = assay: Neuronal longevity in primary cortical neuron culture (LDH, propidium iodide, cleaved caspase 3); assay type: cell-based, mouse
Text: as §1, with “dissected.” for “dissected. In a tissue culture hood, HBSS was removed and the cortex tissue digested by 0.25% Trypsin-EDTA for 12 minutes at 37° C., followed by DNase1 treatment for 10 minutes at 37° C.”
LDH Assay. LDH activity was measured using the Pierce LDH Cytotoxicity Assay Kit. […] After, the same volume of stop reagent was added and the absorbance was measured at 490 and 680 nm. […] LDH release is calculated as a percent of the maximum. […]
In order to understand the effect of chronic BET inhibition on neuronal survival, primary cortical mouse neurons were cultured in the presence or absence of the brain permeable BET inhibitor IBET858 (1 μM). To quantify cell death over time, the levels of lactate dehydrogenase (LDH) were measured in culture media which is presumably released during cell death as the membranes become permeable. […]

[3] = test system: primary cortical neurons exposed to glutamate; assay: Glutamate excitotoxicity in primary cortical neurons; assay type: cell-based, mouse; conditions: 1 week IBET858 1 μM, Rapamycin 20 nM, 1 mM glutamate
Procedure: LDH Assay. LDH activity was measured using the Pierce LDH Cytotoxicity Assay Kit. Culture media was incubated with an equal volume of LDH master mix and incubated for 30 minutes at room temperature in the dark. After, the same volume of stop reagent was added and the absorbance was measured at 490 and 680 nm. Maximum LDH measurements were obtained by adding lysis buffer to release the total amount of LDH in the sample. LDH release is calculated as a percent of the maximum.
Propidium Iodide Assay. Propidium iodide (1 mg/ml, Life Technologies #P3566) was added to each culture well at a final concentration of 0.5 μg/ml. Cultures were incubated for 30 minutes at 37 degrees then washed with PBS. Cells were then fixed with 4% paraformaldehyde in PBS for 15 minutes at room temperature. After fixation, cells were washed with PBS and then mounted using mounting media containing DAPI.
In addition to increasing longevity, rapamycin treatment protects neurons from toxic stimuli such as excessive glutamate. […]
Neurons were treated with IBET858 for increasing durations (2 h, 24 h, 72 h or 1 week) before stimulation with an excitotoxic amount of glutamate (1 mM) on day 14 when mature synapses fully express glutamate receptors. Chronic but not acute BET inhibition increases neuronal survival in response to glutamate toxicity, as measured by the LDH assay. […]

CO[C@H]1C[C@@H]2CC[C@@H](C)[C@@](O)(O2)C(=O)C(=O)N2CCCC[C@H]2C(=O)O[C@H]([C@H](C)C[C@@H]2CC[C@@H](O)[C@H](OC)C2)CC(=O)[C@H](C)/C=C(\C)[C@@H](O)[C@@H](OC)C(=O)[C@H](C)C[C@H](C)/C=C/C=C/C=C/1C [rapamycin, reference compound]
Brd4 chromatin association (BRD4): leads to changes in Brd4 chromatin association | metabolic gene expression (primary cortical neurons [1]): triggers rapid changes | neuroprotective activity (PI living cells, firing rate, LDH after 1 mM glutamate) (primary cortical neurons [2]; 20 nM from day 7): has neuroprotective activity | neuronal lifespan, IBET858 compared with rapamycin (primary cortical neurons [2]; IBET858 1 μM, rapamycin 20 nM): increase neuronal longevity to the same extent | protection from excitotoxicity, IBET858 compared with rapamycin [3]: protect neurons equally
